No constants are given. Whether binding was seen depends on the method and setting. In cells and extracts the contact can be indirect. These calls come from enrichment with a bait or labelling near it, and not all partners need be listed.
Target: SOCS5-HA (suppressor of cytokine signaling 5, HA-tagged) (UniProt O75159)
Assay: affinity purification with mass spectrometry; SOCS5-HA in Huh7 cells precipitated with an anti-HA antibody; co-precipitated proteins identified by mass spectrometry

The chains behind the UniProt entries cited, without tags or fusion partners.
UniProt O75159: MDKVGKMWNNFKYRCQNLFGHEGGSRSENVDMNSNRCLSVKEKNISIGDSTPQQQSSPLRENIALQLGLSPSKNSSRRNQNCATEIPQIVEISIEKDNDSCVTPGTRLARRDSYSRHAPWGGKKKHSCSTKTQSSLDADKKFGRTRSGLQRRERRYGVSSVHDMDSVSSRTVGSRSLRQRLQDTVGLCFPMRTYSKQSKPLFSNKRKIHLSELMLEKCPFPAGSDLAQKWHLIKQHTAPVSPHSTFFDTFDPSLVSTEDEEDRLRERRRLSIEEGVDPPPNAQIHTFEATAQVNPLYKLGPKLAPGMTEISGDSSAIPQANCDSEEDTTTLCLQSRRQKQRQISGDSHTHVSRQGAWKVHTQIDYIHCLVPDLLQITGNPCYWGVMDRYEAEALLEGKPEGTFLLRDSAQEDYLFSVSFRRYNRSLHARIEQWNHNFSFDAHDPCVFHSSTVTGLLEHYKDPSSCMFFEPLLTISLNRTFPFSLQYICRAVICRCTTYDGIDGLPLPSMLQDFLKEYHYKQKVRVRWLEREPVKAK
UniProt P38159: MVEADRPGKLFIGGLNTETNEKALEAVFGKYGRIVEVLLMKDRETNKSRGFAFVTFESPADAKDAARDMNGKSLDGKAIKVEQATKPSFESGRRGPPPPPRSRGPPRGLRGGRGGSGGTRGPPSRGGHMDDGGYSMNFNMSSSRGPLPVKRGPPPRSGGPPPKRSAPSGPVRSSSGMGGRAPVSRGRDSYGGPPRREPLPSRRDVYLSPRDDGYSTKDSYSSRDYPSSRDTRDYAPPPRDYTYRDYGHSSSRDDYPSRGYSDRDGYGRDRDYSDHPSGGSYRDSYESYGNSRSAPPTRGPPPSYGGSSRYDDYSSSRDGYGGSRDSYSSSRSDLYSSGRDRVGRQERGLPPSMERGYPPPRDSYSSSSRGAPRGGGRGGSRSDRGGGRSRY

binding: binds
Substance: RBMX (RNA binding motif protein X-linked), endogenous (from UniProt P38159 1-391)

— article PMC10907597
